Screen size: about 31,000 sequences; about 1,400 (4.5%) were called active.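 Rule for the calls: active = median seed-adjusted z-score above 1 or below -1; inactive = the rest.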 The list shows a part of the results.
Assay: Novel Modifiers of Survival Motor Neuron (SMN) Protein: Gene Identification via Genome-wide siRNA Screen;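 note: luminescence tracks full-length SMN protein made from the SMN2 reporter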
Conditions: HEK293T SMN2-luciferase reporter, siRNA knockdown, 72 h; actives lie on both sides
Method in brief: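 Each of three siRNAs per gene is reverse-transfected (1 pmol) into reporter HEK293T cells whose luciferase output tracks SMN protein level. After 72 h culture, ONE-Glo luminescence is control-normalized, log10-transformed and MAD-standardized; Common Seed Analysis deprioritizes seed-driven hits.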

Sequence	median seed-adjusted z-score
CGGUGUGAAGAUGAUCUAATT against DNAJC24	inactive: -0.0166
CACCUAUAGUGACGAUAUATT against MEP1B	active: 1.46
CCUUAUGAACUGUUGUUAATT against ANKS1A	inactive: -0.0165
GAAGGAAGAUAGUUCGAGATT against DNAJA1	inactive: -0.00548
CAACACCUACUGUCUGGUATT against EIF6	inactive: 0
UAAUGACCCUAUCUAUAAATT against UGT2B17	inactive: -0.0203
AAGCUGAUGUUAACAUCGATT against CDKN2C	inactive: -0.0789
GCAUAUUAAGGAGACCUAUTT against HSD17B6	inactive: 0.573
CAAAGAAUGUGGACAUGCUTT against CXCL16	inactive: 0.201
CUAAGACUGUGGACGAGAATT against SBF1	inactive: 0.192
GCCCGUCUGCAGUACCUAATT against ADAP2	active: -1.1
GCAGGAAGAUUGUGAUUCUTT against SEC14L4	inactive: -0.714
GGUUGGACACUAUACAUAATT against SLC39A1	inactive: 0.658
GAAUUGGCCGUUGGGCUUATT against COX8A	inactive: -0.0749
GAGUUUCAUUUCACGACAATT against TTLL11	inactive: 0.00825
GGAGCACAAUACUUGGGAATT against CBX5	inactive: 0.404
GAUACUGUCUGAUCAUCAATT against CASP8	inactive: 0.413
CGGGCUCCGUAGUCACAUUTT against NAALADL1	inactive: -0.0444
GGAUAGAGUUUACCGAAUUTT against ERCC6L	inactive: -0.0229
CCAACUACAUCUCACUCUATT against KDELR1	inactive: -0.0168
GCCUCAACAUCCUCAGAGATT against UBE2M	inactive: 0.0974
GCUGAGCUACGGUAUGUUUTT against LFNG	inactive: -0.13
CCGUGUCUUCAGGAACGAATT against CYB561	inactive: 0

A run of entries taken from the entries so far, for reference:
Sequence	median seed-adjusted z-score
GAAGGAAGAUAGUUCGAGATT against DNAJA1	inactive: -0.00548
CAACACCUACUGUCUGGUATT against EIF6	inactive: 0
UAAUGACCCUAUCUAUAAATT against UGT2B17	inactive: -0.0203
AAGCUGAUGUUAACAUCGATT against CDKN2C	inactive: -0.0789
GCAUAUUAAGGAGACCUAUTT against HSD17B6	inactive: 0.573
CAAAGAAUGUGGACAUGCUTT against CXCL16	inactive: 0.201

The listing continues:

Sequence	median seed-adjusted z-score
GAUCCGAGAUCAACACCUUTT against PIK3R3	active: -1.88
GACCUGAAAGAAGACUAUATT against PAFAH2	inactive: 0.0216
GGUCCAUUCCAACUGCUCATT against MYOCD	inactive: -0.121
GCUUUUCGUUAGCAUGCAATT against ABCA8	inactive: -0.666
GGAUGCUUCUGAAUAGAAATT against BIRC7	active: -1.44
GAAAGACUUGUUUAUAUUATT against ADRB1	active: 1.06
AUAGCCUUGUUGAAACUAUTT against PCDHA8	inactive: 0
GAACUUACCUGCCUCUUCATT against SLC22A18	inactive: -0.654
ACGCUUUCCUCGACGAGAATT against OPRD1	inactive: 0.314
ACUACUUCAUCCUAACUGATT against FOXRED2	inactive: 0.0294
GGACCAUUUAGAGAAGGUUTT against WARS2	inactive: 0.21
CGAUAGAACUAGAUGGAAATT against RAB8B	inactive: -0.259
GCGAAUAUGUGGAUCGAGATT against DOCK1	inactive: -0.235
AGGGCUGCAUGAAAAUUCATT against AICDA	inactive: 0.289
GGAGAAUAGUAAGCGUAAATT against TRIP10	inactive: -0.261
GGAGAACAACGUAGAUGCATT against PC	inactive: 0.2
GGAGGAAUAUGAGCCGGAATT against MAP1B	inactive: 0.139
GCCUGAGCUUUGAUCGAGATT against PCDH1	inactive: -0.514
AGAUCUUGGUUCCUCUAAUTT against L3MBTL	inactive: 0.0232
CAGUCUAAAUCUCAAGCUATT against TCF20	inactive: 0.392
AGCUUGUGCCCAUACCAAUTT against ITGB7	inactive: 0.443
GGUGUUAAGAUGUUGAGUATT against RFWD3	inactive: 0.554
GUGUAGGGAUAGUUACCAATT against ZNF518A	inactive: -0.252

Sequence	median seed-adjusted z-score
AGAUGAAGUCUAUAUCAAATT against C1QL3	inactive: -0.276
UGGAGUAUCCUAUCAUGUATT against MGST3	inactive: -0.0509
CUGGGAGCAUUAUCAGGAATT against TARS2	inactive: -0.0143
GUGCAUCUCUUGACAAUUUTT against LIPI	inactive: 0.65
GACAAUGGGUUAUUCAGGATT against FNTA	active: 1.04
CCACGGUCUGGUUGAUUUATT against KDELR1	inactive: -0.0168
GCCGUUGAAUUAGCGAAGATT against IPO8	inactive: -0.349
CACUUGCUAUUAUUAGCAUTT against NMBR	inactive: 0.32
GGUCGAAAAGCAAACUCAATT against PTPRN2	inactive: -0.104
CCCAGGCUAGUCACAGUUATT against SCO2	inactive: 0.848
GGACAGGGCUUAUUUAAUUTT against ORC6L	inactive: 0
GCGAGAAGGUUGAUCCAAATT against RP2	inactive: -0.655
GGGUUUUAGUAACCUUAGATT against SUCNR1	inactive: 0
GCUCAGGAGCUAUGCCUCATT against TH	inactive: -0.878
GUGUAUCUCCUGCAAGAUATT against CD96	inactive: 0.461
CCAGAAAGCUUCAUCCACATT against MC1R	inactive: -0.64
CCUCCUGUAUAAAAAGGAATT against CLDN20	inactive: -0.00173
CGGAUACUGAGGUACAGAATT against TPMT	inactive: 0.19
GCACAUGACAUACAUACGATT against PTER	inactive: 0.75
CGGAUAAGCUGAAAACACUTT against AHSA1	inactive: 0.489
GCACUUAAAAGGGCGAAGATT against ZFR	inactive: -0.048
CAACUACGGUGGAGUGAUATT against PRIM1	inactive: -0.23
GGCUUUUAGGGUACGAGGATT against ZFP82	inactive: 0.57
